Experimental findings from paper PMC8960810 are described below.

The test has as its target T1, SLC7A11 (mouse (endogenous in liver tissue)) (UniProt Q9WTR6).
T1 sequence: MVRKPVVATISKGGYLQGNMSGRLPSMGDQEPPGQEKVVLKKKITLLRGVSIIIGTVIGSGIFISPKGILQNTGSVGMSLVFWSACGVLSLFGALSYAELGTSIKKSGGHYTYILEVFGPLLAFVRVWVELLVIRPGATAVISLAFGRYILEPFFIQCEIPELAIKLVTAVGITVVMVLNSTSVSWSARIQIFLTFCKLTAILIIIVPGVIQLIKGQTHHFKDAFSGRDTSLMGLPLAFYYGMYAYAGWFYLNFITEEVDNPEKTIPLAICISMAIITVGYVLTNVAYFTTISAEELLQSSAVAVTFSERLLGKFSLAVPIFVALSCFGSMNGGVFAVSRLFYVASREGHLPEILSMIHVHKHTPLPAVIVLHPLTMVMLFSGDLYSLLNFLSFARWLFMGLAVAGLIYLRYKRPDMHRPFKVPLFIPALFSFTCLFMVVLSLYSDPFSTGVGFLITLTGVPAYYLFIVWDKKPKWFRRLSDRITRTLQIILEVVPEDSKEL
Kind of test: co-IP; endogenous proteins from liver tissue of CCl4-treated (ALI) mice after MSC-Exo treatment; Pierce Co-Immunoprecipitation Kit; precipitation with anti-SLC7A11, anti-CD44 or anti-OTUB1, Western blot; 1% of the sample as input. For orientation: In western blotting, separated proteins are transferred to a membrane and probed.

These are yes or no findings as the source states them, for the method shown. Binding seen in cells or lysates may run through a third protein. Some binding calls cover weakened binding; strength is not graded here.

B1: CD44 (protein, UniProt P15379 23-778)
chain: QIDLNVTCRYAGVFHVEKNGRYSISRTEAADLCQAFNSTLPTMDQMKLALSKGFETCRYGFIEGNVVIPRIHPNAICAANHTGVYILVTSNTSHYDTYCFNASAPPEEDCTSVTDLPNSFDGPVTITIVNRDGTRYSKKGEYRTHQEDIDASNIIDDDVSSGSTIEKSTPEGYILHTYLPTEQPTGDQDDSFFIRSTLATIASTVHSKSHAAAQKQNNWIWSWFGNSQSTTQTQEPTTSATTALMTTPETPPKRQEAQNWFSWLFQPSESKSHLHTTTKMPGTESNTNPTGWEPNEENEDETDTYPSFSGSGIDDDEDFISSTIATTPRVSARTEDNQDWTQWKPNHSNPEVLLQTTTRMADIDRISTSAHGENWTPEPQPPFNNHEYQDEEETPHATSTTPNSTAEAAATQQETWFQNGWQGKNPPTPSEDSHVTEGTTASAHNNHPSQRITTQSQEDVSWTDFFDPISHPMGQGHQTESKDTDSSHSTTLQPTAAPNTHLVEDLNRTGPLSVTTPQSHSQNFSTLHGEPEEDENYPTTSILPSSTKSSAKDARRGGSLPTDTTTSVEGYTFQYPDTMENGTLFPVTPAKTEVFGETEVTLATDSNVNVDGSLPGDRDSSKDSRGSSRTVTHGSELAGHSSANQDSGVTTTSGPMRRPQIPEWLIILASLLALALILAVCIAVNSRRRCGQKKKLVINGGNGTVEDRKPSELNGEASKSQEMVHLVNKEPSETPDQCMTADETRNLQSVDMKIGV
Take B1: the binding result is given as “binds”.
